The source of these data is publication PMC12040169 (PLOS Biology, 2025).

This is one part of the list.

The assay relates to T1, CTL2-GFP (C. trachomatis L2/434/Bu, GFP-expressing).
T1 construct: L2/434/Bu, GFP-expressing
On the set-up: species or system HeLa; Intracellular C. trachomatis growth in HeLa cells, bulk GFP fluorescence relative to DMSO. Conditions: bulk GFP, single well; 28.5 h, 10 µM; inhibitor.
As to `CCCc1cc(O)nc(SCC(=O)Nc2ccc(Cl)cc2Cl)n1` [CBK265147], the “% of control remaining” value is on record as 134.514%.

Consider `CC(=O)NCc1ccc(-c2cc(CN(C)C)n(C)n2)cc1` [CBK281667], for which the “% of control remaining” value stood at 108.873%.

Take `CC(=O)Nc1ccc(-c2cncc(N3CCN(CCN4CCCC4)CC3)n2)cc1` [CBK065710]: the “% of control remaining” value stood at 180.76%. In the case of `Cc1cc(C)c(C)c(CSCc2nc3ccccc3[nH]2)c1C` [CBK266466] it was 130.721%; in that of `Cc1nn(C)c(Cl)c1S(=O)(=O)NC1(c2ccc(F)cc2)CC1` [CBK282800], 117.159%; in that of `O=C(Cc1ccccc1Cl)N1CCC(O)(c2cccnc2F)CC1` [CBK284360], 72.234%. Consider `O=C1CCCN1c1ccc(S(=O)(=O)N(c2ccccc2)C2CCNCC2)cc1` [CBK165122T], for which the “% of control remaining” value was found to be 100.814%. On to `CC(C)(CSc1ccccn1)NS(=O)(=O)c1ccccc1` [CBK268513], for which the “% of control remaining” value is reported as 96.5731%.

For the compound `CCN1CCCC1CNC(=O)c1ccc(-c2ccc(OC)cc2)nc1N(C)C(C)=O` (stereo not shown) [CBK076491], the “% of control remaining” value is reported as 146.09%. As for `Cc1cc(Sc2ncnc(N)c2[N+](=O)[O-])ncn1` [CBK267235], the “% of control remaining” value is given as 44.3209%.

Turning to `COc1ccccc1CC(=O)N[C@@H]1CCN(Cc2cccnc2)C[C@H]1O` [CBK307200], the “% of control remaining” value is listed as 159.53%. To `COc1ccc(Cl)cc1N1CCN(CC2CCCCC2)CC1` [CBK138336] belongs 120.669%; to `CC(C)c1nnc(NS(=O)(=O)Cc2ccccc2)s1` [CBK045540], 117.213%; to `COc1ccc(CCN2C(=O)/C(=C\c3c(NCCO)nc4c(C)cccn4c3=O)SC2=S)cc1` [CBK265566], 100%. In the case of `CN(C)CC(=O)NCc1ccc(-c2nc(-c3ccc(C#N)cc3)cnc2N)cc1` [CBK116506] it was 118.871%; in that of `COCCNc1cc(-c2ccc(F)c(F)c2)ncn1` [CBK090800], 144.628%; in that of `Cc1ncc(C(=O)NC2(c3cccc(F)c3)CCCC2)c(C)n1` [CBK283273], 103.3%. In the case of `CCOc1ccc(NC(=O)Nc2ccc(CC(=O)O)cc2)cc1` [CBK266945] it was 129.98%; in that of `CCn1nc(C)c(CN(C)Cc2nc3ccccc3[nH]2)c1C` [CBK282126], 118.897%.

With `O=C(O)c1cc(NC(=O)c2cccc(F)c2)cc(NC(=O)c2cccc(F)c2)c1` [CBK262800], the “% of control remaining” value is reported as 138.528%. In the case of `COc1ccccc1OCC(=O)Nc1cc(C)nc2ccccc12` [CBK122728] it was 102.203%; in that of `COCCN(CCOC)C(=O)COc1c(Cl)cc(C(=O)O)cc1Cl` [CBK296704], 121.679%; in that of `CNC(=O)c1sc2ccccc2c1C1CCN(Cc2ccc(Oc3ncccn3)cc2)C1` (stereo not shown) [CBK285881], 136.529%. As to `O=C(O)[C@H]1CN(C(=O)c2cccs2)C[C@@H]1c1ccccc1F` [CBK283819], the “% of control remaining” value is recorded as 138.472%. To `CCCCC1CCC(C(=O)Oc2ccccc2OCCO)CC1` (stereo not shown) [CBK081498] belongs 93.1666%; to `O=C(Cc1ccc(F)cc1F)N1CCC(Sc2ccc(-c3ccccc3)cc2)CC1` [CBK131950], 93.4991%. To `Cn1c2c(c(=O)n(C)c1=O)[C@@H]1C(C[C@](O)(CO)[C@H]1O)C1(CCC1)N2` (stereo partly shown) [CBK303264] belongs 103.709%; to `Cc1nc2c(c(=O)[nH]1)CN(Cc1c[nH]c3ccccc13)CC2` [CBK282327], 106.833%. As to `CC(C)NC(=O)CN(CCO)Cc1cc(Br)ccc1F` [CBK304944], the “% of control remaining” value worked out at 110.935%. Regarding `Cn1cc(C(CC(=O)O)C(=O)O)c2ccccc21` (stereo not shown) [CBK266231], the “% of control remaining” value worked out at 126.901%. In the case of `COc1ncc(-c2nccnc2NCc2cccc(Cl)c2)c(OC)n1` [CBK037990] it was 172.816%; in that of `Cc1ccccc1N1C(=O)c2ccc(Br)cc2C1=O` [CBK022430], 108.867%; in that of `O=C(NCCCO)c1ccc(/C=N/O)nc1` [CBK264560], 122.541%. To `Cc1noc(C)c1NC(=O)c1n[nH]c2ccccc12` [CBK200301] belongs 111.196%.

With `Cc1ccc(CCNC(=O)c2snnc2C)cc1C` [CBK282051], the “% of control remaining” value stood at 100.36%. To `O=C(O)c1nccnc1C(=O)NCCc1c[nH]c2ccc(Cl)cc12` [CBK286630] belongs 96.3074%; to `O=CNCCCc1nc2ccccc2n1CCc1ccccc1` [CBK269393], 120.611%. To `CC(C)NC(=O)NC(=O)C1CCN(CCCc2ccc(Cl)c(Cl)c2)CC1` [CBK034947] belongs 141.521%; to `C=C(C)CNC(=O)c1cc(Br)cnc1N(C)S(C)(=O)=O` [CBK076498], 125.299%. As for `CC(C(=O)N1CCC2(CC1)NC(=O)c1ccccc1N2)(c1ccccc1)c1ccccc1` [CBK286308], the “% of control remaining” value came out at 26.0712%. To `CCSc1nnc2c(n1)OC(C)Nc1ccccc1-2` (stereo not shown) [CBK025684] belongs 158.915%; to `Cc1cc(O)c(C(=O)Nc2cccc(Cl)c2)c(=O)n1Cc1ccccn1` [CBK287729], 125.929%. To `CC(C)c1ccc(C2C(C(=O)c3ccco3)=C(O)C(=O)N2CCCN(C)C)cc1` (stereo not shown) [CBK264549] belongs 117.6%; to `N#Cc1c2c(c(NCCN3CCCCC3)n3c1nc1ccccc13)CCC2` [CBK263140], 85.9248%.

As to `C/N=c1\cccccc1NC` [CBK022788], the “% of control remaining” value is on record as 108.145%. Consider `O=C(O)COC(=O)C1C(c2ccccc2)C(C(=O)O)C1c1ccccc1` (stereo not shown) [CBK263881], for which the “% of control remaining” value stood at 147.294%. In the case of `COc1cccc(OCc2cnc(-c3ccc(Cl)cc3)c(-c3cccc(CNC(C)=O)c3)c2)c1` [CBK165225] it was 130.896%. In the case of `COc1cccc(C(=O)N2CCC(Cc3ccccc3-c3ccccc3)(C(N)=O)CC2)c1` [CBK285729] it was 114.634%; in that of `C[C@H](Oc1cncc(N2CCNCC2)n1)c1ccccc1Cl` [CBK172341G], 81.0891%. To `c1coc(CN2CCC(c3ccc4c(c3)OCO4)CC2)c1` [CBK284001] belongs 71.6442%; to `COC(=O)c1c(NC(=O)C2CC=CCC2C(=O)O)sc2c1CCC(C)C2` (stereo not shown) [CBK262655], 111.662%; to `Cc1nc(C)c(C(=O)N2CCCc3ccccc32)s1` [CBK200345], 121.113%.
